Screening data, single-dose tests

Protein sequences, listed by entry. Tags and fused reporters are not part of them.
UniProt P9WPC5, whole entry: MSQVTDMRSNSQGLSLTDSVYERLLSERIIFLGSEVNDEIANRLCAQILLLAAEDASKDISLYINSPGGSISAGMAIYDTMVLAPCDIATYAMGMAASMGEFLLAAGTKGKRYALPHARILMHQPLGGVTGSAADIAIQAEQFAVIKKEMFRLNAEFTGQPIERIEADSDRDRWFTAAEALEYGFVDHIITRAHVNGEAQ
UniProt P9WPC3, whole entry partner: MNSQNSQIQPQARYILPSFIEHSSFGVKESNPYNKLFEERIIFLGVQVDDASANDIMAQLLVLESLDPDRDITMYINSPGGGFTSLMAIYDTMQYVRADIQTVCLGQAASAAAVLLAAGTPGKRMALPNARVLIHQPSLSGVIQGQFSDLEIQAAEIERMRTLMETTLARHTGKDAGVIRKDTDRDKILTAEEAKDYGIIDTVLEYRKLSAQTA
UniProt I6X8D2, whole entry: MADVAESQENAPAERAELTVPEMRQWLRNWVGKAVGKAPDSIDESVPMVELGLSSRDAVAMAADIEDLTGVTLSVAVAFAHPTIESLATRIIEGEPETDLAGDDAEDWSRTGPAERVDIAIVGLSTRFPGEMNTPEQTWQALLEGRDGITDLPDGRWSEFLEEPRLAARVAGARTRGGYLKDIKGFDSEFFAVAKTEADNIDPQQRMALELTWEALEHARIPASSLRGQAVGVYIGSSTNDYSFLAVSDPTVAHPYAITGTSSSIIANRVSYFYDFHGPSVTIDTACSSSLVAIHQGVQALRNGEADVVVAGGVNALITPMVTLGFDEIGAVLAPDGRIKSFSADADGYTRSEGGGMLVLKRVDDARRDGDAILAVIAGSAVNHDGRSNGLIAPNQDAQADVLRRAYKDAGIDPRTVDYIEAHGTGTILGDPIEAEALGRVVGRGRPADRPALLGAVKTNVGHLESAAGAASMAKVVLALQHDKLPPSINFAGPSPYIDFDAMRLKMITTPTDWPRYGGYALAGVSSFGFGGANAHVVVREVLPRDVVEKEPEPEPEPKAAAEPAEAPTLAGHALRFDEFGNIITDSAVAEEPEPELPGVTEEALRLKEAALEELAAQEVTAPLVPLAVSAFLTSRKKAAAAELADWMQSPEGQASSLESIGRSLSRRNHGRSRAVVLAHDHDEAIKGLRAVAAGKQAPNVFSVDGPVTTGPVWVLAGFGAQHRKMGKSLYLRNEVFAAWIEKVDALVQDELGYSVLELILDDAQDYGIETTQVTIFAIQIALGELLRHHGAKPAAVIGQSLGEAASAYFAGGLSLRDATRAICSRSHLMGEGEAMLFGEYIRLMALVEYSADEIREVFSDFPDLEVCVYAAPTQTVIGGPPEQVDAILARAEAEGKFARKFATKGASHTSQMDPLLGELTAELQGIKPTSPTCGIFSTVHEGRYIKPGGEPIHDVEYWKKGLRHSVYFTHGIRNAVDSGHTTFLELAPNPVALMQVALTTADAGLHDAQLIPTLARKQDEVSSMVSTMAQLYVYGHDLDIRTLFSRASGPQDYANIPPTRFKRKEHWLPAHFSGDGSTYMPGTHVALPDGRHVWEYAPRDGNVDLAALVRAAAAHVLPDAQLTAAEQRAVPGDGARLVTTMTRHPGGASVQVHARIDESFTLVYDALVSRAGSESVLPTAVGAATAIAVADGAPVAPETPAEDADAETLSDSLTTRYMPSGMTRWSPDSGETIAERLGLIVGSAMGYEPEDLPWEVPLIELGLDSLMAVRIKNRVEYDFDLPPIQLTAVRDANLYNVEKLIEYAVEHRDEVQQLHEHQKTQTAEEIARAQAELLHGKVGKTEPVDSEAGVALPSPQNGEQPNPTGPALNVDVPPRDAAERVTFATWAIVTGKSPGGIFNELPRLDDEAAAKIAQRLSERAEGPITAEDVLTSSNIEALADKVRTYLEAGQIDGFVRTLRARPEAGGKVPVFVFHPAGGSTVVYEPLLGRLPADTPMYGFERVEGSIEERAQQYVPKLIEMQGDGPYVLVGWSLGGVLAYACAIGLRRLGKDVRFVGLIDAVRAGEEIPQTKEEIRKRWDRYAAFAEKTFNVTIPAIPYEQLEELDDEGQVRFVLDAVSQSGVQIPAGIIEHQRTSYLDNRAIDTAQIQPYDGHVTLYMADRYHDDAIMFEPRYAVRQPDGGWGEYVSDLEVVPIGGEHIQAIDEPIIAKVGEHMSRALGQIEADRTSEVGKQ

Results are given as percent effect. How 0% and 100% were set is not recorded. Most values in the screen are low, and negative values occur. The compounds are a random part of those screened. A dash means the value is not listed here; it may have been measured.

A: 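ClpP1P2, Mycobacterium tuberculosis (UniProt P9WPC5 and UniProt P9WPC3). Protease assay of ClpP1P2, read by the AMC dye that it sets free. Tested at 50 µM. Direction is inferred from only a few compounds that gave an IC50; most scored high, so higher reads as stronger inhibition. Most other retested compounds had strongly negative values. About 69,000 compounds were tested under these conditions; 0.015% (about 10) showed 50% or more at least once.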
B: 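Polyketide synthase Pks13, Mycobacterium tuberculosis (UniProt I6X8D2). Enzyme assay of the thioesterase domain of polyketide synthase 13; the read-out is not stated. Concentration: 30 µM. The record gives no direction; the compounds picked for IC50 retests had high values, so higher reads as stronger inhibition. Of about 67,000 compounds tested this way, about 300 (0.46%) reached 50% or more in at least one test.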

| # | Compound | A | B |
|---|---|---|---|
| 1 | `CC(=O)c1cc(CC(=O)N2CCCC2c2nc(C(C)C)no2)cs1` (stereo not drawn) | 2.704 | 5.827 |
| 2 | `c1cncc(CN2CCc3c(nnn3CC3CC3)C2COCC2CC2)c1` (stereo not drawn) | -2.433 | -17.49 |
| 3 | `Cc1cc(-c2ccc(=O)n(CCNC(=O)C3CCC3)n2)c(C)o1` | -14.29 | 4.373 |
| 4 | `CCCNC(=O)c1cc(C2CCCN(Cc3ccccn3)C2)no1` (stereo not drawn) | -3.951 | -27.45 |
| 5 | `CN1CCCN(C(=O)c2csc(-c3ccc(C(F)(F)F)cc3)n2)CC1` | 13.44 | 2.823 |
| 6 | `Cc1sc(Br)cc1S(=O)(=O)NCc1ccccn1` | -3.159 | -19.15 |
| 7 | `O=C(c1ccc(F)cc1)N1CCC2(CCCN2CC2CC2)CC1` | -1.22 | 2.704 |
| 8 | `Cc1cc(N2CCCC2c2cccnc2)nc(C)n1` (stereo not drawn) | 4.708 | -5.072 |
| 9 | `CC(c1nc(C2CC2)no1)N1CCN(CCc2ccncc2)CC1` (stereo not drawn) | -0.6323 | -27.68 |
| 10 | `CCS(=O)(=O)N1CCn2c(COCC3CCOCC3)cnc2C1C` (stereo not drawn) | 0.7295 | -6.706 |
| 11 | `CCCc1n[nH]c(C2CN(CC(=O)N(C)Cc3ccco3)CCO2)n1` (stereo not drawn) | -1.455 | -11.82 |
| 12 | `CNc1cc(CNC(=O)c2ccccc2)nc(-c2ccncc2)n1` | 9.308 | -53.99 |
| 13 | `Cc1nonc1NC(=O)CCn1cc(Br)ccc1=O` | -5.919 | 4.751 |
| 14 | `Cn1cnnc1C1CCCN(C(=O)NCCNc2ccccn2)C1` (stereo not drawn) | 13.97 | -14.38 |
| 15 | `CCOc1ncccc1NC(=O)N1CCC(CN2CCOCC2)CC1` | -16.5 | -22.15 |
| 16 | `O=C(O)c1cc(S(=O)(=O)N2CCOc3ccccc32)cc(Cl)c1Cl` | -5.863 | -9.23 |
| 17 | `O=C(N1CCC(Oc2ccncc2)C1)C1(c2ccc(F)cc2)CC1` (stereo not drawn) | -5.623 | -3.292 |
| 18 | `Cc1cccc(Oc2ccccc2CNC(=O)C2CCC(=O)NC2)c1` (stereo not drawn) | 1.754 | -0.3185 |
| 19 | `CC(NC(=O)c1cc(N2CCNC2=O)ccc1F)c1ccc(F)cc1` (stereo not drawn) | -5.347 | -24.94 |
| 20 | `COC(=O)[C@@H]1C[C@@H](O)CN1Cc1ccn(-c2ccc(F)cc2)n1` | -6.097 | -0.5191 |
| 21 | `Cc1occc1CNC(=O)Nc1ccc2nc(N3CCOCC3)oc2c1` | 5.255 | -2.864 |
| 22 | `Cc1nn(C)c(Cl)c1S(=O)(=O)N(C)c1ccc(Cl)cn1` | 7.024 | 8.242 |
| 23 | `CN(Cc1ccco1)C[C@H]1OC[C@@H]2CCN(Cc3ccncc3)C[C@@H]21` | -0.1171 | -13.71 |
| 24 | `Cc1c(CN2CCOCC2)c(O)n(CCc2ccccc2)c(=O)c1C#N` | -16.35 | -38.89 |
| 25 | `O=C(c1cccc2c1OCCO2)N1CCCC1Cn1cccn1` (stereo not drawn) | 2.216 | -22.71 |
| 26 | `CCc1nc(CC(=O)N2CCCC2CN2CCCC2)cs1` (stereo not drawn) | -10.9 | -7.009 |
| 27 | `COc1ccccc1CCN1CCCC(CN(C)Cc2cc(C)n[nH]2)C1` (stereo not drawn) | -13.38 | 0.1587 |
| 28 | `Cc1cnc2n(c1=O)CC(C(=O)Nc1cccc3cccnc13)CS2` (stereo not drawn) | -5.329 | 1.482 |
| 29 | `Cc1cn(CC(=O)NCC(=O)NC2CC2)c2ccccc12` | -2.153 | -29.81 |
| 30 | `Cc1ccc(CC(=O)N2CCOC(c3ncc(CN(C)C)[nH]3)C2)s1` (stereo not drawn) | -15.11 | 3.112 |
| 31 | `CC(NCc1cc(F)ccc1F)c1ccc(OCC(=O)NC2CC2)cc1` (stereo not drawn) | 0.5886 | -34.43 |
| 32 | `CC(C)C(O)C1CCN(c2ccnc(C(=O)NCc3ccco3)c2)CC1` (stereo not drawn) | 0.6967 | -23.98 |
| 33 | `CCOc1cc(NC(=O)N(C)Cc2ncnn2C)ccc1C` | -13.22 | -13.99 |
| 34 | `Cc1occc1C(=O)N1C[C@@H]2CCCO[C@@H]2[C@H](N(C)Cc2ccco2)C1` | -15.77 | -25.74 |
| 35 | `CCNC(=O)C1CCCN(C(=O)Nc2cc(C#N)ccc2OCC)C1` (stereo not drawn) | -7.277 | -6.698 |
| 36 | `COCCCNC(=O)CN(C)C(=O)CN(C)c1ccc(C#N)cn1` | -1.405 | 15.06 |
| 37 | `CN1CCCCC1CCC(=O)NCCCn1ncc2ccccc21` (stereo not drawn) | -3.871 | -26.63 |
| 38 | `CCN(CC)CC1CCN(C(=O)CCn2cccn2)CC1` | -12.5 | -24.64 |
| 39 | `CCN1C[C@@H]2CN(C(=O)C3CC=CC3)C[C@@H]2C1=O` | 11.89 | - |
| 40 | `COCCN1CCN(CCCc2nnnn2-c2ccccc2)CC1` | 15.34 | -28.43 |
| 41 | `Cc1csc(C(=O)N2CCCC(c3[nH]ncc3S(C)(=O)=O)C2)c1` (stereo not drawn) | -9.462 | -8.667 |
| 42 | `Cc1ncc(C(=O)N2CCCC2c2c(C)nn(C)c2C)s1` (stereo not drawn) | 0.8963 | -33.57 |
| 43 | `Cc1noc(C(C)C)c1C(=O)NCC(c1cccc(F)c1)N(C)C` (stereo not drawn) | -11.2 | -21.1 |
| 44 | `CCc1nnc(Sc2nn3cc(C)nc3s2)n1C` | 1.573 | -31.36 |
| 45 | `Cc1nc(C2CCNCC2)cc(N(C)CCc2cn[nH]c2)n1` | -9.221 | -21.31 |
| 46 | `CC(C)=CCC1(C(=O)O)CCCN(CCC(=O)NC2CC2)C1` (stereo not drawn) | -7.511 | -4.422 |
| 47 | `COC(=O)[C@@H](NC(=O)Nc1ccc(C(C)=O)cc1)C(C)C` | 9.089 | 18.73 |
| 48 | `CCOC(=O)N1C[C@H]2CC[C@@H]1CN(Cc1ccccc1)C2` | -5.358 | -13.83 |
| 49 | `CCC[C@H]1CN(CCS(C)(=O)=O)C[C@@H]1NC(=O)c1ccccn1` | -1.743 | -19.51 |
| 50 | `CCCS(=O)(=O)c1ncc(CN2CCC(C)CC2)n1CC1CCCO1` (stereo not drawn) | -8.192 | -24.09 |

4 of the entries, repeated:

| Compound | A | B |
|---|---|---|
| `Cc1nc(C2CCNCC2)cc(N(C)CCc2cn[nH]c2)n1` | -9.221 | -21.31 |
| `CCN1C[C@@H]2CN(C(=O)C3CC=CC3)C[C@@H]2C1=O` | 11.89 | - |
| `CN(Cc1ccco1)C[C@H]1OC[C@@H]2CCN(Cc3ccncc3)C[C@@H]21` | -0.1171 | -13.71 |
| `CN1CCCCC1CCC(=O)NCCCn1ncc2ccccc21` (stereo not drawn) | -3.871 | -26.63 |

Data taken from ChEMBL document CHEMBL3988442, “University of Dundee, Small-Polar-MMV Screening Library” (2021).